Experimental data from PubChem BioAssay AID1671190 (National Center for Advancing Translational Sciences (NCATS), 2021).
Several values for one entry are separate records, joined by “and”; a condition that tells them apart may be missing. Equal entries are not always repeated. Out of some 580,000 compounds screened, about 6,100 (1.1%) were called active. This list was built around the results that the source calls inconclusive (neither active nor inactive); the mix of calls is not that of the screen. The call rests on the fitted dose curve; in most records, active means well fitted inhibition curve with a large enough effect; inconclusive means small, poorly fitted or top-dose-only effect, or another doubt; inactive means no such curve, though single readings can be large or run the other way. Potencies of inconclusive entries are doubtful fits and often do not repeat.

Chains of the proteins cited; added tags and fusions are not shown. Lines headed by an entry give the natural chain unless they say otherwise; changes in a name come on top.
UniProt P18054: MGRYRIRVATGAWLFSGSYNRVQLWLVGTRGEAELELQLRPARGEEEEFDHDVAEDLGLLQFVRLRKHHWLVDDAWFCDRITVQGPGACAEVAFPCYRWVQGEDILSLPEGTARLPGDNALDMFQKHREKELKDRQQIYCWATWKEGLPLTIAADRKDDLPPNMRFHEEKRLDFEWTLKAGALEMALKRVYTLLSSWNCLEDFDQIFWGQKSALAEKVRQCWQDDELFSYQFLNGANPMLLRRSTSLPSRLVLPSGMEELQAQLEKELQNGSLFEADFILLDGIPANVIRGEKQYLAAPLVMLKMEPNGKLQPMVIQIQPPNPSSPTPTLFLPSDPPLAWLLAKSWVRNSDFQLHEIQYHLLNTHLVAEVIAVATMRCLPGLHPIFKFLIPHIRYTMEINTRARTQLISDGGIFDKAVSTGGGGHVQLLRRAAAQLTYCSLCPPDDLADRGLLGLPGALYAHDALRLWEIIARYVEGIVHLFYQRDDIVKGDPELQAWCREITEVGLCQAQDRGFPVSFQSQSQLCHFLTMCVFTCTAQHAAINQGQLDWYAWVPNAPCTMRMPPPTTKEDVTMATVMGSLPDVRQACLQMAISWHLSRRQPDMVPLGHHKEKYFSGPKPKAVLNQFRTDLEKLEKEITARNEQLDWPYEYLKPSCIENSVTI

What follows are molecules tested against Polyunsaturated fatty acid lipoxygenase ALOX12 (Homo sapiens) (UniProt P18054) (assay: Primary qHTS assay for inhibitors of human arachidonate 12S-lipoxygenase (ALOX12): Round 2). Settings: purified 12hLO, xylenol orange hydroperoxide absorbance; series mostly up to 108 µM.
Outline: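 Purified human 12hLO at 150 nM in 25 mM Hepes, 0.01% Triton X-100, pH 7.0, preincubated 15 min at room temperature with compound. Reaction started with 40 uM arachidonic acid, 30 min at room temperature. Hydroperoxide measured by Fe-xylenol orange, 573/405 nm absorbance ratio.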
Potency means the concentration at half of the fitted maximal effect.

Row | Structure (SMILES) | Potency
1 | O=[N+]([O-])c1ccc(Nc2ccc(Cl)cc2)nc1 | inconclusive: 22.4 µM [inhibitor, partial curve]
2 | O=C(Nc1ccccc1C(=O)N/N=C/c1ccco1)c1ccc(F)cc1 | inconclusive: 0.562 µM [inhibitor, full curve, poor fit]
3 | CCn1c(=O)c(C(=O)Nc2ccccc2)c(O)c2ccccc21 | inconclusive: 35.5 µM [inhibitor, single point]
4 | CC1(C)OC2=C(C(=O)c3ccccc3C2=O)[C@H](NCc2ccccc2)[C@H]1O | inactive
5 | CSc1ccccc1NC(=O)CSc1n[nH]c(C)c1[N+](=O)[O-] | inconclusive: 50.1 µM [inhibitor, partial curve, poor fit]
6 | Cc1ccc(-c2c[n+](CC(=O)Nc3ccccc3C)c3n2CCC3)cc1 | inconclusive: 89.1 µM [inhibitor, single point]
7 | COc1ccc(OCC(C)CN2CCC(C(O)(c3ccccc3)c3ccccc3)CC2)cc1 (centres undefined) | inconclusive: 79.4 µM [inhibitor, single point]
8 | CC(C)(C)OC(=O)N1CC(Nc2ccc(O)cc2)C1 | inconclusive: 8.91 µM [inhibitor, partial curve]
9 | CC(C)CC(c1nnnn1CC1CCCO1)N1CCN(C2CCCC2)CC1 (centres undefined) | inconclusive: 4.47 µM [inhibitor, full curve, poor fit]
10 | Cc1ccc(-c2csc(N3CCN(c4cc5c(cc4Cl)nc(C)n5CCN4CCCCC4)CC3)n2)cc1 | inconclusive: 89.1 µM [inhibitor, partial curve, poor fit]
11 | C(=NCc1ccccc1)N1c2ccccc2-n2cccc2C1CCc1ccccc1 (centres undefined) | inconclusive: 5.01 µM [inhibitor, full curve, poor fit]
12 | Clc1ccc(Nc2ccc(Cl)nn2)cc1 | inconclusive: 141 µM [inhibitor, partial curve, poor fit]
13 | CC[C@@H]1Cc2cc(O)ccc2C2=C1c1ccc(O)cc1C[C@H]2CC | active: 50.1 µM
14 | O=S(=O)(c1ccc2nc(N3CCN(c4ccccc4F)CC3)ccc2c1)N1CCCCC1 | inconclusive: 44.7 µM [inhibitor, partial curve, poor fit]
15 | CC1(C)Cc2c(C#N)c(N)sc(=S)c2CS1 | inconclusive: 14.1 µM [inhibitor, partial curve, poor fit]
16 | Cc1c(C#N)c(NC(=O)CSc2nnnn2C2CCCC2)n(CC2CCCO2)c1C (centres undefined) | inconclusive: 28.2 µM [inhibitor, single point]
17 | Cc1ccc(OCCSc2ncnc3nc[nH]c23)cc1 | inactive
18 | O=C(C[n+]1cc(Br)cc2ccccc21)c1ccc(Cl)cc1 | inconclusive: 50.1 µM [inhibitor, partial curve, poor fit]
19 | O=S(=O)(Nc1nc2ccccc2nc1NCc1ccccc1Cl)c1cccs1 | inconclusive: 50.1 µM [inhibitor, partial curve, poor fit]
20 | FC(F)(F)c1ccccc1/C=N/n1c(C2CCCCC2)n[nH]c1=S | inconclusive: 35.5 µM [inhibitor, single point]
21 | O=C(Nc1ccccc1N1CCOCC1)c1ccc([N+](=O)[O-])cc1 | inactive
22 | O=C(CSc1nncs1)Nc1nnc(-c2ccccc2)o1 | inconclusive: 5.01 µM [inhibitor, full curve, poor fit]

Row | Structure (SMILES) | Potency
23 | O=C(c1ccsc1)N1CCC2(CC1)NCCc1c2[nH]c2ccccc12 | inconclusive: 31.6 µM [inhibitor, partial curve, poor fit]
24 | O=C(C[C@H]1C[C@H]2c3cc(NS(=O)(=O)c4ccc(F)cc4)ccc3O[C@H]2[C@H](CO)O1)NCc1cc(F)ccc1F | inconclusive: 112 µM [inhibitor, single point]
25 | Cc1ncccc1C(=O)N1CCC(N2CC3CC(C2)[C@H]2CCCC(=O)N2C3)CC1 (some centres undefined) | inconclusive: 2.82 µM [inhibitor, full curve, poor fit]
26 | O=C(CCl)NCC12CC3CC(CC(C3)C1)C2 | inconclusive: 50.1 µM [inhibitor, partial curve, poor fit]
27 | Cc1nc2ncccn2c1-c1csc(NCc2ccco2)n1 | inactive
28 | CC1(C(=O)NS(=O)(=O)c2cccc(Cl)c2)CCN1C(=O)Cc1ccsc1 (centres undefined) | inconclusive: 70.8 µM [inhibitor, partial curve, poor fit]
29 | N#CC(C(=O)NCc1ccccc1)c1nc2ccccc2nc1N1CCN(c2ccc(F)cc2)CC1 (centres undefined) | inconclusive: 25.1 µM [inhibitor, single point]
30 | S=C(NN=C1CCC(c2ccccc2)CC1)NC1CCCCC1 (centres undefined) | active: 35.5 µM
31 | COCCNc1ccc2cc(S(=O)(=O)N3CCCCC3)ccc2n1 | inconclusive: 2.24 µM [inhibitor, full curve, poor fit]
32 | N#Cc1nc(COc2ccccc2F)oc1NCc1cccnc1 | inconclusive: 50.1 µM [inhibitor, single point]
33 | Cc1ccc(-c2cccc(CN3CCCC(c4nc5ccc(C)cc5c(=O)[nH]4)C3)c2)c(C)c1 (centres undefined) | inconclusive: 25.1 µM [inhibitor, full curve] and inconclusive: 15.8 µM [inhibitor, full curve]
34 | O=C(COc1ccccc1F)Nc1ccc(S(=O)(=O)NCc2ccco2)cc1 | inactive
35 | COc1ccc(C(=O)Nc2ccc3oc(-c4ccncc4)nc3c2)cc1OC | inconclusive: 89.1 µM [inhibitor, single point]
36 | Cc1nc2sc(C#N)c(N)c2c(C)c1CC(=O)c1ccccc1 | inactive
37 | COc1ccc(-c2cc3ccc(OCc4nn[nH]n4)cc3oc2=O)cc1 | inconclusive: 35.5 µM [inhibitor, single point]
38 | CCOC(=O)CSc1ccc2nnc(-c3cccs3)n2n1 | inconclusive: 39.8 µM [inhibitor, partial curve, poor fit]
39 | CC(=O)Nc1sc(NC(=O)c2ccc(Cl)cc2)nc1-c1cccs1 | inconclusive: 3.16 µM [inhibitor, partial curve, poor fit]
40 | Cc1ccc(-c2cc(C(=O)O)c3ccccc3n2)c(C)c1 | inconclusive: 39.8 µM [inhibitor, partial curve, poor fit]
41 | COc1ccc(OC)c(C(c2nnnn2Cc2ccccc2)N2CCN(C)CC2)c1 (centres undefined) | inconclusive: 35.5 µM [inhibitor, single point]
42 | CCSC1=C(C#N)C2(CCCCC2)C2=C(CC(C)(C)CC2=O)N1 | inconclusive: 126 µM [inhibitor, single point]
43 | CC(C)c1ccc(OCCCCCN2CCOCC2)cc1 | inconclusive: 5.62 µM [inhibitor, full curve, poor fit]
44 | Cc1c(C(=O)Nc2nc(-c3cccs3)ns2)oc2ccccc12 | inconclusive: 2.51 µM [inhibitor, full curve, poor fit]

Row | Structure (SMILES) | Potency
45 | COc1ccc(OC)c(S(=O)(=O)NCC(c2cccs2)S(=O)(=O)c2ccc(F)cc2)c1 (centres undefined) | inactive
46 | N#Cc1cccc(NC(=O)N2CCC[C@@H](O)[C@H](NC(=O)c3ccc(OCc4ccc(F)cc4)cc3)C2)c1 | inconclusive: 79.4 µM [inhibitor, single point]
47 | CN(C)/C=C(\C(=O)c1ccccc1)c1nnnn1-c1ccc(F)cc1 | inconclusive: 35.5 µM [inhibitor, single point]
48 | N#CC1=C(N)OC2=C(C(=O)CC(c3ccccc3)C2)C1c1ccsc1 (centres undefined) | inconclusive: 22.4 µM [inhibitor, full curve, poor fit]
49 | Cc1[nH]c2ccccc2c1C(=O)CN1C(=O)NC(C)(c2ccc(Cl)cc2Cl)C1=O (centres undefined) | inconclusive: 39.8 µM [inhibitor, partial curve, poor fit]
50 | O=C1CSCc2nc3ccccc3n21 | inconclusive: 15.8 µM [inhibitor, full curve]
51 | S=C(Nc1ccccc1)N[C@H]1CO[C@H]2[C@@H]1OC[C@@H]2Nc1nccc(-c2ccco2)n1 | inconclusive: 79.4 µM [inhibitor, partial curve, poor fit]
52 | O=C(/C=C/c1ccco1)c1ccccc1O | inconclusive: 70.8 µM [inhibitor, single point]
53 | Cc1ccc(OCCNS(=O)(=O)c2ccc(Cl)cc2)cc1 | inactive
54 | Cc1ccc(NC(=O)CSc2nnc(-c3cnccn3)n2Cc2ccco2)cc1C | inconclusive: 44.7 µM [inhibitor, partial curve, poor fit]
55 | CC(C)(C)C(=O)NCC12C=CC(O1)C1C(=O)N(c3ccccc3)C(=O)C12 (centres undefined) | inactive
56 | COc1ccc(-c2nnc(SCc3ccccc3F)o2)cc1 | inactive
57 | CN(c1cc(=O)c2ccnc(Nc3ccn(C)n3)c2o1)C1CCOCC1 | inconclusive: 14.1 µM [inhibitor, full curve]
58 | COC(=O)CCC(=O)OC1(C)C(=O)C=C2C=C(C3CC3)N(CCCCO)C=C2C1=O (centres undefined) | inconclusive: 14.1 µM [inhibitor, partial curve, poor fit]
59 | Cc1ccc2c(COC(=O)c3ccc(C)s3)cc(=O)oc2c1 | inactive
60 | CCOC(=O)C1=CN(CC(=O)Nc2ccc(C)c(C)c2)S(=O)(=O)N=C1C | inactive
61 | Cc1nc2c(sc3nc(N4CCOCC4)c4c(c32)CC(C)(C)OC4)c(-c2ccc(Cl)cc2)c1C(=O)O | inactive
62 | O=c1oc2ccccc2cc1-c1ccc(O)cc1 | inactive
63 | COc1ccccc1-n1c(-c2cccnc2)n[nH]c1=S | inconclusive: 39.8 µM [inhibitor, partial curve, poor fit]
64 | CC(C)(C)c1cc(C(C)(C)C)c2oc(=O)c(-c3nc4ccc(C(=O)O)cc4[nH]3)cc2c1 | inconclusive: 89.1 µM [inhibitor, partial curve, poor fit]

A few values from the results shown:
Value for Cc1ccc2c(COC(=O)c3ccc(C)s3)cc(=O)oc2c1 under Potency: inactive
Value for S=C(Nc1ccccc1)N[C@H]1CO[C@H]2[C@@H]1OC[C@@H]2Nc1nccc(-c2ccco2)n1 under Potency: inconclusive: 79.4 µM [inhibitor, partial curve, poor fit]
Value for Cc1[nH]c2ccccc2c1C(=O)CN1C(=O)NC(C)(c2ccc(Cl)cc2Cl)C1=O (centres undefined) under Potency: inconclusive: 39.8 µM [inhibitor, partial curve, poor fit]
Value for O=C(/C=C/c1ccco1)c1ccccc1O under Potency: inconclusive: 70.8 µM [inhibitor, single point]
